The target of experiment [1] is T1, p84 regulatory subunit of PI3Kγ (mouse) (UniProt Q3U6Q4).
T1 sequence: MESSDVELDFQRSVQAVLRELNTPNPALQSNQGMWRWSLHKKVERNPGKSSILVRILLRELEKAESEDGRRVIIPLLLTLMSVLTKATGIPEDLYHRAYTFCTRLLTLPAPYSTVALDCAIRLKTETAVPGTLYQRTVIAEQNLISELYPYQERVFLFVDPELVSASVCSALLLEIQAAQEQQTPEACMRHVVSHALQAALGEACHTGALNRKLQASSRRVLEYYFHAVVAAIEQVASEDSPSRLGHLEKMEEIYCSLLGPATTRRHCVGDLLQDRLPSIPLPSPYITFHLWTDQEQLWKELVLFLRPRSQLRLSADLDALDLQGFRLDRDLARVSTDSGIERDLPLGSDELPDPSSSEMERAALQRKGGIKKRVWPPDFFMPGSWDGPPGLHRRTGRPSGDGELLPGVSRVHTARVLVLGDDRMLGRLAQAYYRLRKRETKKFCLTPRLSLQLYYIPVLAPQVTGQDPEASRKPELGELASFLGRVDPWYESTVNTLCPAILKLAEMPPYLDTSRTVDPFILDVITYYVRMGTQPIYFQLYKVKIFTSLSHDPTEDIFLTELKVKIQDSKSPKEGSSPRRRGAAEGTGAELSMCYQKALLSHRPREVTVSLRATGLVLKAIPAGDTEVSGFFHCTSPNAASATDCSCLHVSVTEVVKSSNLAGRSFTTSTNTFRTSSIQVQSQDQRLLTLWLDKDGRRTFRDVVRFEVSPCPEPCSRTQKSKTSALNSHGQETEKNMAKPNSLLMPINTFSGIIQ
The experiment in a line: co-purification (nickel affinity, streptavidin affinity, size-exclusion chromatography); co-expression in Sf9; His10-2x Strep tag on p84 or p101 only; p110γ untagged. (Size exclusion chromatography separates by hydrodynamic size, large species first.)

Amino acid sequences for entries named in this document (tags omitted).
UniProt P48736: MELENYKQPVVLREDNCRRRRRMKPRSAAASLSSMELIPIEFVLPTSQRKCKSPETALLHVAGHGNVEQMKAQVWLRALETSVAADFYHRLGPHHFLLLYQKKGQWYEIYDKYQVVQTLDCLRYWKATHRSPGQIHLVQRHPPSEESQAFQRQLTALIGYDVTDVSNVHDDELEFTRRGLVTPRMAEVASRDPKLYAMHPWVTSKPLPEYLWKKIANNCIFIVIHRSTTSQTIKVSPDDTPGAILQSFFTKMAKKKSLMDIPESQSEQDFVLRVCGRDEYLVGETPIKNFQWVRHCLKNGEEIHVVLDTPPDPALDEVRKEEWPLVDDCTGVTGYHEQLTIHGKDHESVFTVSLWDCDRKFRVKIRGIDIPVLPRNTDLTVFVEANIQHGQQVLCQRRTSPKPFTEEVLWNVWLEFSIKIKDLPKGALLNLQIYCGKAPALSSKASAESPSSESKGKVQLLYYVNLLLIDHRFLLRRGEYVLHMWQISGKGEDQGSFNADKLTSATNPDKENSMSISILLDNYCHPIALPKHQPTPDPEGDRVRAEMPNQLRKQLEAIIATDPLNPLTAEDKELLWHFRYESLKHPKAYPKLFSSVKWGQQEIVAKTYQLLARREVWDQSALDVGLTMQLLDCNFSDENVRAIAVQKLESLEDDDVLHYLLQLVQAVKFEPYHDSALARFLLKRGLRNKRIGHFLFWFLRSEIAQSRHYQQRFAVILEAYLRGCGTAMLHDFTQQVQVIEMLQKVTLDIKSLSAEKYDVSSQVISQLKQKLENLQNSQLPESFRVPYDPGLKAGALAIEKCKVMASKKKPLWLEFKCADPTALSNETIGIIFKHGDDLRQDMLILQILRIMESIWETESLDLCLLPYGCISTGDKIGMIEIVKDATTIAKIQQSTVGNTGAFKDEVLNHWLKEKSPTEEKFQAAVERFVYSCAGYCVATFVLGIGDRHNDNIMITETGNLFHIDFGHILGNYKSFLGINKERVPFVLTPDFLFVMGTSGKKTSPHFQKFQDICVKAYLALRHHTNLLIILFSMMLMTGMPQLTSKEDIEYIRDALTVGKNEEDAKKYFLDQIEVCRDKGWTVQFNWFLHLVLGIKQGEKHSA

The target of experiment [2] is T2, p101 regulatory subunit of PI3Kγ (Sus scrofa (porcine)) (UniProt O02696).
T2 sequence: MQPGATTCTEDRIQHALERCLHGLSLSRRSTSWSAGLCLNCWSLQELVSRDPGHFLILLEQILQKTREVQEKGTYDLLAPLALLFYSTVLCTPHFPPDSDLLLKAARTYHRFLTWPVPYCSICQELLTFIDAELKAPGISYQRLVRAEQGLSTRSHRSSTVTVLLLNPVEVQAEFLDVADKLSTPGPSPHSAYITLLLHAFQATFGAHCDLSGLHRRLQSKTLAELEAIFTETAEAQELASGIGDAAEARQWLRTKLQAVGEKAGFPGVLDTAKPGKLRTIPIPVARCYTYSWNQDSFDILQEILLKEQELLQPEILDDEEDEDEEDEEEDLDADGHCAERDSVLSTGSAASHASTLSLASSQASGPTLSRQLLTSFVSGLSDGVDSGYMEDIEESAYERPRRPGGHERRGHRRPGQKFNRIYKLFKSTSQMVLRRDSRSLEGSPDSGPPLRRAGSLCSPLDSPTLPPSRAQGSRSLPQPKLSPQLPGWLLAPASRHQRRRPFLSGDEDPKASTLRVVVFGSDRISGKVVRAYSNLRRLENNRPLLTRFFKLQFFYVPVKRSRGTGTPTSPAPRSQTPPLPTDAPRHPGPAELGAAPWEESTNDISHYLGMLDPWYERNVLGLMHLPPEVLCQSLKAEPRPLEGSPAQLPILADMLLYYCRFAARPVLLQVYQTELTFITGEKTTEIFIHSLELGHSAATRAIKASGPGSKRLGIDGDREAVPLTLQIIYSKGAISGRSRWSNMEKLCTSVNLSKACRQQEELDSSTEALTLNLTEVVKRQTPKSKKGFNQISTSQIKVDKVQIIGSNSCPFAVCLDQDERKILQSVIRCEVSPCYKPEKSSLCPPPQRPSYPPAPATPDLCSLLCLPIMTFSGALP
The experiment is described as above.

Results are given in words; binding and its absence hold for the method and conditions named. Some results given as binding are weak or reduced against the parent protein; the word gives no strength.

The values below come from publication PMC10392983.

For the substance “p110γ, untagged, co-expressed with a tagged regulatory subunit (from UniProt P48736 1-1102) (enzyme)”, the binding entry in experiment [1] and in experiment [2] was “binds” each time.
